The target in test [1] is T1, endogenous IRF3 (BMDMs) (mouse (endogenous in BMDMs)), P70671.
T1 chain: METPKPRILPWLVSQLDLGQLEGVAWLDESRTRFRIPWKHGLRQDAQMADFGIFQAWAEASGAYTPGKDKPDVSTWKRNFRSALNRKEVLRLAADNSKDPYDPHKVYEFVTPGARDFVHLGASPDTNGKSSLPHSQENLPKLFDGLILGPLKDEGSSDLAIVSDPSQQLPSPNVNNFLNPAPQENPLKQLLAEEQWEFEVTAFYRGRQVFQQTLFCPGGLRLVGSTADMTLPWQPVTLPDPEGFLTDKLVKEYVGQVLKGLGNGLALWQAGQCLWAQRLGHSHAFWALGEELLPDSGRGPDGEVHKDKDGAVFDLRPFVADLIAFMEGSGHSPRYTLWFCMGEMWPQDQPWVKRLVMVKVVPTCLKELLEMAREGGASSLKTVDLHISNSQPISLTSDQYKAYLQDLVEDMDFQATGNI
The test can be described thus: native gel or EMSA. As to conditions: remark: other sources report otherwise. (In general: In EMSA bound probe runs differently from free probe, usually more slowly.)

In test [2] the target is endogenous IRF3 (BMDMs) (mouse (endogenous in BMDMs)) (UniProt P70671). The test can be described thus: native gel or EMSA; native PAGE of extracts of Cyld-/- BMDMs after cGAMP (1 μg per well); IRF3 dimerization.
Test [3] has as its target T2, endogenous STING (mouse cells) (mouse (endogenous in MEFs and BMDMs)) (UniProt Q3TBT3).
T2 sequence: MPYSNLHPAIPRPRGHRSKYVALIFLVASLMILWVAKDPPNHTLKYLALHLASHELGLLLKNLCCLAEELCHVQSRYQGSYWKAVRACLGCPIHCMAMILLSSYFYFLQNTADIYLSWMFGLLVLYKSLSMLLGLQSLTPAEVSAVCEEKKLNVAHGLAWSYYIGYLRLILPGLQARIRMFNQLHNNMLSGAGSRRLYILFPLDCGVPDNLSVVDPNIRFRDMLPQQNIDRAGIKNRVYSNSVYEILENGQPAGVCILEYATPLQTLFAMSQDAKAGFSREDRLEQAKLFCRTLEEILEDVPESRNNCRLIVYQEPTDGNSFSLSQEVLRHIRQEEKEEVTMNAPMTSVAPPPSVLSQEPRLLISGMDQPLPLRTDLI
The test can be described thus: co-IP.

Results are given in words; binding and its absence hold for the method and conditions named. For part of these data: In cells and extracts the contact can be indirect. Some entries that bind do so weakly or less than the wild type.

B1: endogenous IRF3 (BMDMs), P70671 1-419 (protein)
chain: T1 chain
In the case of B1, the binding entry in test [1] was “binds”.

B2: endogenous IRF3 (BMDMs) (protein, UniProt P70671 1-419)
chain: T1 chain
With B2, the binding result in test [2] is “binds weakly”.

B3: endogenous CYLD (MEFs) (enzyme, UniProt Q80TQ2 1-952)
chain: MSSGLWSQEKVTSPYWEERIFYLLLQECSVTDKQTQKLLKVPKGSIGQYIQDRSVGHSRVPSTKGKKNQIGLKILEQPHAVLFVDEKDVVEINEKFTELLLAITNCEERLSLFRNRLRLSKGLQVDVGSPVKVQLRSGEEKFPGVVRFRGPLLAERTVSGIFFGVELLEEGRGQGFTDGVYQGKQLFQCDEDCGVFVALDKLELIEDDDNGLESDFAGPGDTMQVEPPPLEINSRVSLKVGESTESGTVIFCDVLPGKESLGYFVGVDMDNPIGNWDGRFDGVQLCSFASVESTILLHINDIIPDSVTQERRPPKLAFMSRGVGDKGSSSHNKPKVTGSTSDPGSRNRSELFYTLNGSSVDSQQSKSKNPWYIDEVAEDPAKSLTEMSSDFGHSSPPPQPPSMNSLSSENRFHSLPFSLTKMPNTNGSMAHSPLSLSVQSVMGELNSTPVQESPPLPISSGNAHGLEVGSLAEVKENPPFYGVIRWIGQPPGLSDVLAGLELEDECAGCTDGTFRGTRYFTCALKKALFVKLKSCRPDSRFASLQPVSNQIERCNSLAFGGYLSEVVEENTPPKMEKEGLEIMIGKKKGIQGHYNSCYLDSTLFCLFAFSSALDTVLLRPKEKNDIEYYSETQELLRTEIVNPLRIYGYVCATKIMKLRKILEKVEAASGFTSEEKDPEEFLNILFHDILRVEPLLKIRSAGQKVQDCNFYQIFMEKNEKVGVPTIQQLLEWSFINSNLKFAEAPSCLIIQMPRFGKDFKLFKKIFPSLELNITDLLEDTPRQCRICGGLAMYECRECYDDPDISAGKIKQFCKTCSTQVHLHPRRLNHSYHPVSLPKDLPDWDWRHGCIPCQKMELFAVLCIETSHYVAFVKYGKDDSAWLFFDSMADRDGGQNGFNIPQVTPCPEVGEYLKMSLEDLHSLDSRRIQGCARRLLCDAYMCMYQSPTMSLYK
For the molecule B3, the binding entry in test [3] is “binds”.
